Test results published in paper doi:10.1101/581785.
Results are given in words; binding and its absence hold for the method and conditions named. In cells and extracts the contact can be indirect. Some entries that bind do so weakly or less than the wild type.

Amino acid sequences for entries named in this document (tags omitted). A change or cut given only in a name is not applied to a line headed by its entry.
UniProt O15037: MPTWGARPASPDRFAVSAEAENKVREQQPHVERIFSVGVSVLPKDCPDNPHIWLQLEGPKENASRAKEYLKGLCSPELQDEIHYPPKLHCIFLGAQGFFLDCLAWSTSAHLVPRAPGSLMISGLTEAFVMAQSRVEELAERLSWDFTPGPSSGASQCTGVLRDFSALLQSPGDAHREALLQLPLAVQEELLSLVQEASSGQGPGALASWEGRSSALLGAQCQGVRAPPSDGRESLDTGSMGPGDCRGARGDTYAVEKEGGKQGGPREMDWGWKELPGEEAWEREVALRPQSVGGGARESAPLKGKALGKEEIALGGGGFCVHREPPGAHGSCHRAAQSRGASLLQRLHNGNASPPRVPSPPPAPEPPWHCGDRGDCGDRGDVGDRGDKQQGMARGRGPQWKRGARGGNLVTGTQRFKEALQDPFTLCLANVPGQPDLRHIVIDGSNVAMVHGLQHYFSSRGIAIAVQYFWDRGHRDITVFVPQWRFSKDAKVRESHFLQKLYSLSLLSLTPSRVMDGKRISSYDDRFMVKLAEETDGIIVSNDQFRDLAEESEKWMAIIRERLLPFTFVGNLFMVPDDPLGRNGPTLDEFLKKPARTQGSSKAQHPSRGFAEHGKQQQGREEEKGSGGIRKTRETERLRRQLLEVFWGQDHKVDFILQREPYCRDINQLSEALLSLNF
UniProt Q7Z2W4: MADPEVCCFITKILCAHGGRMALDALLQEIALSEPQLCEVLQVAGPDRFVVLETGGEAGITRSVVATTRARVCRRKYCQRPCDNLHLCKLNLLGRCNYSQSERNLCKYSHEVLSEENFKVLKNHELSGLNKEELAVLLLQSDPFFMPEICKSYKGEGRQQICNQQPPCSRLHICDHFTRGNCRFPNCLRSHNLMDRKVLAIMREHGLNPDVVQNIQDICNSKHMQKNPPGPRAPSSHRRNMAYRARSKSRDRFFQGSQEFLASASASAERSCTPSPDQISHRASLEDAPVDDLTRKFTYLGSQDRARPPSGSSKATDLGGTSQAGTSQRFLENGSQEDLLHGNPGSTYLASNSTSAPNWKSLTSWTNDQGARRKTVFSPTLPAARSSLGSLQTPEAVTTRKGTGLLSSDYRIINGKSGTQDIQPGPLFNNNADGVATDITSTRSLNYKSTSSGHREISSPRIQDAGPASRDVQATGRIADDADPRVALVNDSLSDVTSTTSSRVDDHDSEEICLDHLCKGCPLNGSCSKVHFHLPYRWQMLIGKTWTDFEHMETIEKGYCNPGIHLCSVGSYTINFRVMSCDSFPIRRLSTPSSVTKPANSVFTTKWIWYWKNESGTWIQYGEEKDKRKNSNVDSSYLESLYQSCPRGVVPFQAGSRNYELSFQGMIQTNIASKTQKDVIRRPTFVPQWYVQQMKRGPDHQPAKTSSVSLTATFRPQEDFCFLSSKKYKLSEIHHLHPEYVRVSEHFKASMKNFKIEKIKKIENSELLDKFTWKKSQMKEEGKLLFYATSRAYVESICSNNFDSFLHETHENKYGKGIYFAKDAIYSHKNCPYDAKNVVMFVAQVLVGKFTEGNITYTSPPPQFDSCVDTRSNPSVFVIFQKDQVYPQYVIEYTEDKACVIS
UniProt Q14258: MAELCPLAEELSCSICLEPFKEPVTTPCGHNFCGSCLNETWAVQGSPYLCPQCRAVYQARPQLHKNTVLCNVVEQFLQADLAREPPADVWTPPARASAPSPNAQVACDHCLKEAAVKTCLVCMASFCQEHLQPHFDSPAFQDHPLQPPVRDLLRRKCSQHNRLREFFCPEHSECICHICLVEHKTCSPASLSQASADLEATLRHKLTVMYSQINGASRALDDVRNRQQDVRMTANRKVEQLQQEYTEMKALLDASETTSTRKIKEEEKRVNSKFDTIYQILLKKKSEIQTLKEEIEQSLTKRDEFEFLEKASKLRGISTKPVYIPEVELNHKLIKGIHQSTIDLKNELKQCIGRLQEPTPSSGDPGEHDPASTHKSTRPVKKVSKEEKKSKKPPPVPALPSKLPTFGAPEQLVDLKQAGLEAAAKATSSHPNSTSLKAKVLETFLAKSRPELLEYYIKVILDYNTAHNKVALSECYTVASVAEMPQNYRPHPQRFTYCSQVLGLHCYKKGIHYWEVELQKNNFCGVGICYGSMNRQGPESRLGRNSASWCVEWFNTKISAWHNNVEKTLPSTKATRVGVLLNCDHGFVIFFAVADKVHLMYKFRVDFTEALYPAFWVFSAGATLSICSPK

Legend:
KHNYN-1-FLAG (human) = KHNYN-1-FLAG (human) (UniProt O15037); experiment: co-IP
[1] = target: ZAP-L, endogenous in HEK293T cells (human (endogenous in HEK293T)) (UniProt Q7Z2W4); experiment: co-IP

With “TRIM25, endogenous in HEK293T cells (from UniProt Q14258 1-630)” the binding (KHNYN-1-FLAG (human)) was “binds”.
In the case of HA-ZAP-L (from UniProt Q7Z2W4-1 1-902), the binding (KHNYN-1-FLAG (human)) is reported as “binds”.
For “ZAP-L, endogenous in HEK293T cells (from UniProt Q7Z2W4-1 1-902)”, the binding (KHNYN-1-FLAG (human)) was “binds”.
With “KHNYN-1-FLAG (from UniProt O15037 1-678)” the binding [1] was “binds”.
